{"source": "patent US20050129618A1", "about": "“Drugs for ameliorating itch, rough skin or hypersensitive skin or for whitening via inhibition of the production and release of stem cell factor” (Shiseido Co., ltd., priority 2001, published 2005)", "tested_on": "SCF expression on keratinocyte membranes", "test": "Accelerated SCF expression on keratinocyte membranes by different stimulations", "type": "cell-based, human", "conditions": "chemical stimulation, culturing for 24 hours; FIG. 4", "description": "After plating 1.5 million keratinocytes on a 10 cm plate and culturing for 72 hours, the cells were stimulated by one of the following: (1) exchanging the medium with PBS(−), irradiating the culture with UVB at 20 mJ/cm^2 and then immediately exchanging the PBS(−) with medium, (2) adding forskolin, or (3) adding theophyllin. After culturing for 24 hours, the cells were collected and then dispersed in 200 μl of 50 mM phosphate buffer solution (pH 7.8)+protease inhibitor solution, and the cells were then disrupted with an ultrasonic disrupter for five 30-second disruption cycles at 4° C. After centrifugation at 10,000 g for 20 minutes at 4° C., the supernatant was further centrifuged at 100,000 g for 60 minutes at 4° C. The obtained pellet was dissolved in 100 μl of 25 mM phosphate buffer solution (pH 6.8)+0.1% Triton-X100 solution and a membrane fraction protein extract was obtained. The protein content of the solution was measured by an established method, and then the SCF amount was assayed to obtain an SCF/protein value.", "note": "For at least one compound, name, drawing or mass did not settle the structure."}
{"smiles": "C=C[C@@]1(C)CC(=O)[C@]2(O)[C@@]3(C)[C@@H](O)CCC(C)(C)[C@@H]3[C@H](O)[C@H](OC(C)=O)[C@@]2(C)O1", "note": "[forskolin]", "values": [{"measurement": "expression of SCF in the cells or on the cell membranes (SCF/protein value of membrane fraction)", "result": "accelerated expression of SCF"}]}
